# Measurements published in patent US10934439B2, “Additives for coating compositions and related methods” (Massachusetts Institute of Technology, priority 2017, dated 2021).
# Some results were stated once for a whole list of compounds, not compound by compound.
# Assay: Potentiodynamic polarization (Tafel tests) of galvanized steel in 3.5% NaCl with additives
# Details: pH 5.6, 25° C (FIG. 18)
# Text: The electrochemical open-to-air cell (PTC1™ Paint Test Cell, Gamry Instruments, Warminster, Pa.) was utilized for the potentiodynamic polarization (Tafel tests) and electrochemical impedance spectroscopy experiments. The electrochemical cell was composed of working electrode made of galvanized steel (zinc-galvanized sheets of type B carbon steel, ASTM A653, total thickness 0.305 mm, working area 2.2 cm^2 or 15.2 cm^2, McMaster Carr Supply Co., Robbinsvill, N.J.), reference Ag/AgCl electrode, and Pt wire auxiliary electrode (BASK) Corp., West Lafayette, Ind.). Prior to the immersion in the electrolyte (3.5% NaCl, pH adjusted to 5.25-5.3, 40 mL), the working electrodes were washed by acetone, ethanol, dried by nitrogen flow and polished with P1200 grit.^24 The working electrode was immersed into electrolyte containing the tested compound at a given concentration with desired pH at 25° C. for 60 min prior to each measurement. […]
# In the vicinity of Ecorr both currents are present in the specimen, but experimentally it is possible to measure only the net current. […] At Ecorr the net measured current is exactly zero. The corrosion current (icorr) is expressed as (for definitions, see FIG. 13): […]
# From the icorr values, inhibitor efficiencies (IE, %) were calculated as (equation (1)): […]
smiles,measurement,value
"O=C(O)CCSCCC(=O)O [TDPA, 3,3′-thiodipropionic acid, reference compound]",CTDPA at which IE values plateau,> 30 mM
